Measured values from patent US20210358575A1, “A METHOD FOR DETERMINING THE EFFICACY OF TREATMENT WITH A COMBINATION OF DRUGS IN A SUBJECT DIAGNOSED WITH A DISEASE AND A METHOD FOR CLASSIFYING THE UTILITY OF DRUG COMBINATIONS IN TREATMENT OF SAID SUBJECT” (priority 2018, published 2021).
At least one compound was matched to its structure with a doubt left.

System: bone marrow samples of multiple myeloma (MM) patients
Test: Ex vivo test of single drugs, EC50 compared with population distribution, multiple myeloma samples
Type: cell-based, human
Settings: MM patient VIVIA-PMMM130061, 48 h
Protocol: Bone marrow samples were obtained from three adult patients diagnosed with MM (VIVIA-PMMM010431, VIVIA-PMMM060111 and VIVIA-PMMM130061) and three adult patients diagnosed with ALL (VIVIA-PMALL07002, VIVIA-PMALL04001 and VIVIA-PMALL09001). Following the same experimental design as described for examples 1 and 3, said bone marrow samples were incubated for 48 h in well plates containing the single drugs shown in FIGS. 21 to 26. After the measurement of pathological populations by flow cytometry, pharmacological response parameters were estimated using population pharmacodynamic models. The most representative parameter of drug potency, the EC50, was used for a comparative analysis of the results provided by said bone marrow samples with respect to the statistical distribution of the same parameter observed in a population of samples and stored in the database. Such populations varied in size depending on the drug, being always over one hundred individuals in the case of MM and between 15 and 21 individuals in the case of ALL.

C[C@@H]1C[C@H]2[C@@H]3CCC4=CC(=O)C=C[C@]4(C)[C@@]3(F)[C@@H](O)C[C@]2(C)[C@@]1(O)C(=O)CO [dexamethasone]
ex vivo activity: very weak activity
